Test results taken from article PMC4971335.
No constants are given. Whether binding was seen depends on the method and setting. Binding seen in cells or lysates may run through a third protein. Some entries that bind do so weakly or less than the wild type. Blank lines part the entries; values can stand above or below the molecule they belong to.

Sequences of proteins named here, by UniProt entry; tags and fusion partners are left off.
UniProt P63208: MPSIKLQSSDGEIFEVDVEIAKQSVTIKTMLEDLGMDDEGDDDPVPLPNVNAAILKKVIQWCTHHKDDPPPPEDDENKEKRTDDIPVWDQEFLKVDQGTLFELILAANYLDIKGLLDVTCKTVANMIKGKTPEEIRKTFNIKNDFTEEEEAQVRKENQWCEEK

Target: T1, wild-type AIP (coimmunoprecipitation) (human) (UniProt O00170)
T1 sequence: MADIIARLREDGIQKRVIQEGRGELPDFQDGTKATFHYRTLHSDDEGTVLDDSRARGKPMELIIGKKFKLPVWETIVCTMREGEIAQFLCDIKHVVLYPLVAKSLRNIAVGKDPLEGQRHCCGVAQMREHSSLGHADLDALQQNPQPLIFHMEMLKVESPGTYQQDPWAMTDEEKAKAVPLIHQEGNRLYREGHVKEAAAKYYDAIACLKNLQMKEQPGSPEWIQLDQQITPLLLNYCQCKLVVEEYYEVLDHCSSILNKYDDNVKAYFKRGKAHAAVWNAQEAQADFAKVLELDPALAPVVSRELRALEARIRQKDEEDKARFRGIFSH
Experiment: co-IP; coimmunoprecipitation with WT AIP to validate the pull-down hits; cells, tags and bait not told in the text shown

- binding: no binding
Molecule: SKP1 (coimmunoprecipitation) (from UniProt P63208 1-163)

- binding: binds
B1: FBXO3 (coimmunoprecipitation) (protein, UniProt Q9UK99 1-471)
chain: MAAMETETAPLTLESLPTDPLLLILSFLDYRDLINCCYVSRRLSQLSSHDPLWRRHCKKYWLISEEEKTQKNQCWKSLFIDTYSDVGRYIDHYAAIKKAWDDLKKYLEPRCPRMVLSLKEGAREEDLDAVEAQIGCKLPDDYRCSYRIHNGQKLVVPGLLGSMALSNHYRSEDLLDVDTAAGGFQQRQGLKYCLPLTFCIHTGLSQYIAVEAAEGRNKNEVFYQCPDQMARNPAAIDMFIIGATFTDWFTSYVKNVVSGGFPIIRDQIFRYVHDPECVATTGDITVSVSTSFLPELSSVHPPHYFFTYRIRIEMSKDALPEKACQLDSRYWRITNAKGDVEEVQGPGVVGEFPIISPGRVYEYTSCTTFSTTSGYMEGYYTFHFLYFKDKIFNVAIPRFHMACPTFRVSIARLEMGPDEYEEMEEEEEEEEEEDEDDDSADMDESDEDDEEERRRRVFDVPIRRRRCSRLF
